Legend:
MOR = conditions: read-out: KI at the MOR (reported); ref [3]; cited from earlier work
[1] = biological target: T1, Norepinephrine Transporter (NET) (Homo sapiens, UniProt P23975); assay: cell-based
T1 construct: HA (N); host or cells: HEK293 (ATCC CRL-1573), electroporated, G418-selected population

Chains of the proteins cited; added tags and fusions are not shown.
UniProt P23975, whole entry: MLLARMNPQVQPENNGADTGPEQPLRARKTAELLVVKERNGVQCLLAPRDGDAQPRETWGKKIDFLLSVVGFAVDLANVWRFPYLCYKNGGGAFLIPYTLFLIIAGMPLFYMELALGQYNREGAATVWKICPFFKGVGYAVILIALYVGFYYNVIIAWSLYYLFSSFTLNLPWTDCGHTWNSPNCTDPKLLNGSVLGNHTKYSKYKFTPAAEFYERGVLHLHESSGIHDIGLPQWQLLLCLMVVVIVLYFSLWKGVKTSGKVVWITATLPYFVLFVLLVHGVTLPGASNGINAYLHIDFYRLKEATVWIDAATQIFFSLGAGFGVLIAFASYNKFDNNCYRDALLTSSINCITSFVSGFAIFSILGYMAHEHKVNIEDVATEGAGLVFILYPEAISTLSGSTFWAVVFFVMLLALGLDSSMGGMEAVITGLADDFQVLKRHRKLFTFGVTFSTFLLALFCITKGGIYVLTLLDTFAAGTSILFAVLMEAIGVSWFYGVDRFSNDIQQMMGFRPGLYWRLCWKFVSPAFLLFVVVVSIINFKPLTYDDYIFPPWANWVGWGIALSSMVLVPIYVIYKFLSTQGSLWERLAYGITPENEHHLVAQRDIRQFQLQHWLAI

For `COc1cccc(C2(O)CCCCC2CN(C)C)c1` (centres unmarked) [Tramadol], the Ki (MOR) is given as over 10 µM and the IC50 [1] is given as over 2 µM.
